No constants are given. Whether binding was seen depends on the method and setting. Binding seen in cells or lysates may run through a third protein. Some entries that bind do so weakly or less than the wild type.
Biological target: T1, O-GlcNAc transferase (UniProt Q8CGY8)
T1 sequence: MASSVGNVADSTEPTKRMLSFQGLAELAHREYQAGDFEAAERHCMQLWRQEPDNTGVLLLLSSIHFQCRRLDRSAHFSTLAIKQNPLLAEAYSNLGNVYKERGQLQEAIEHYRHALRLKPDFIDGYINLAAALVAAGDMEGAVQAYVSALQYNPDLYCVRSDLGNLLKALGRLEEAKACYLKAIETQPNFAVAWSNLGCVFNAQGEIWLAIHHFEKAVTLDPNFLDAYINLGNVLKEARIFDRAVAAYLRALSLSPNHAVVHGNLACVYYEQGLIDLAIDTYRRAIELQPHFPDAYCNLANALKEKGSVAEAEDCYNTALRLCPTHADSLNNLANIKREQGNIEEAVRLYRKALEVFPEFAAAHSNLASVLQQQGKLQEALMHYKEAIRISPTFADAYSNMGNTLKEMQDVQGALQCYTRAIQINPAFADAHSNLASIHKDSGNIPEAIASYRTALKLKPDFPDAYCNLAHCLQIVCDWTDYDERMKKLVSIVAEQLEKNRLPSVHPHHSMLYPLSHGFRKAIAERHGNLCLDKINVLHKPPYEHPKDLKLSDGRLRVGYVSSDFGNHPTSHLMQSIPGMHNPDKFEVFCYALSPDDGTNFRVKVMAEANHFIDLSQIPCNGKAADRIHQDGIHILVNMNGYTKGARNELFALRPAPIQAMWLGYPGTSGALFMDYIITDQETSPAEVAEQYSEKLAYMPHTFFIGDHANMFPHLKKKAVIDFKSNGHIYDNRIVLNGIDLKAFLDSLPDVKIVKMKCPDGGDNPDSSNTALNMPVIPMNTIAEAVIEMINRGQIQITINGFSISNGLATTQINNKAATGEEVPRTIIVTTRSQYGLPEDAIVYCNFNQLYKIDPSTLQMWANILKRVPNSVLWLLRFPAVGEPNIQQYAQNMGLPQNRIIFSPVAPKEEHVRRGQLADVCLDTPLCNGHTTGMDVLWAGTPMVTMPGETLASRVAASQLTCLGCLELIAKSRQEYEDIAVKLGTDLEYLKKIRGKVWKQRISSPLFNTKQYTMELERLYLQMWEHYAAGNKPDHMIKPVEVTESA
Assay: co-IP; lysate of cultured astrocytes, endogenous proteins; which protein was precipitated is not told in the text shown

The chains behind the UniProt entries cited, without tags or fusion partners.
UniProt P43006: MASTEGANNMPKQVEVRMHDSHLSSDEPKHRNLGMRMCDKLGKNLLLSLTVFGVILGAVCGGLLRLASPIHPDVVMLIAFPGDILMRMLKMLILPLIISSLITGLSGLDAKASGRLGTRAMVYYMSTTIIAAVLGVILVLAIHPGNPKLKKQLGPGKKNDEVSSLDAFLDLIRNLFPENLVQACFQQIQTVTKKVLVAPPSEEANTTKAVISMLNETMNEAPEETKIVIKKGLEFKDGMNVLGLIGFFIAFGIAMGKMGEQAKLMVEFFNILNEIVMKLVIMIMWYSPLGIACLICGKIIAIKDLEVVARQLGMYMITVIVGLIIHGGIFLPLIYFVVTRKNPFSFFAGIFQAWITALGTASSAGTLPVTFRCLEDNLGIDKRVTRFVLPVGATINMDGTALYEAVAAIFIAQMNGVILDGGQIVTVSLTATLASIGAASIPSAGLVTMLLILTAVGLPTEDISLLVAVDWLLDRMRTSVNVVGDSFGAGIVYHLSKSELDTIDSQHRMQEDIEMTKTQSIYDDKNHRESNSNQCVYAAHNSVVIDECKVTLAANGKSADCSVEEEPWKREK

“glutamate transporter-1 (from UniProt P43006 1-572)” was tested, and the binding was “binds”.
